Test results reported in patent publication US20220175729A1, “PHARMACEUTICAL USE OF CHLOROPHYLLIDE FOR CANCER THERAPY” (I-SHOU UNIVERSITY, priority 2020, published 2022).

Tested on: MDA-MB-231 breast cancer cells
Assay: Differential gene expression analysis by NGS, MDA-MB-231
Type: cell-based, human
Conditions: treated versus untreated MDA-MB-231; FIG. 7

Substance: chlorophyllide
- number of differentially expressed genes: 77
- number of negative regulated genes: 21
- number of positive regulated genes: 56

Some results come without the dose or concentration used.
